# Test results reported in patent publication US20020156031.
# Chains of the proteins cited; added tags and fusions are not shown. Residues count along the entry.
# UniProt Q8VI67, 27-428: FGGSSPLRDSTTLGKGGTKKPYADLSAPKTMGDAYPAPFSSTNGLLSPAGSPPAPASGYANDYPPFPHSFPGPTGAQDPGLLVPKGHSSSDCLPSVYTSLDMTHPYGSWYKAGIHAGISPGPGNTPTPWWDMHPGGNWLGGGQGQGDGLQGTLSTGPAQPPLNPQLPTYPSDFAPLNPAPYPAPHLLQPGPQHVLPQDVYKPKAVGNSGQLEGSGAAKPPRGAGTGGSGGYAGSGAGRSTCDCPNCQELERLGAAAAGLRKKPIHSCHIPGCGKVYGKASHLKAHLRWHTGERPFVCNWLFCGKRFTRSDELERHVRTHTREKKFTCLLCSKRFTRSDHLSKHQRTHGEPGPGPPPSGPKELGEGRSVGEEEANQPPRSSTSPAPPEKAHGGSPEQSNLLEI
# Results from cells or extracts need not show a direct contact.
# Target: Osterix (Osx) (Mus musculus) (UniProt Q8VI67)
# Assay: EMSA
# Details: protein in a lysate after overexpression, label: 32P
Sequence,binding result (bound efficiently),"binding result (dose dependent with extract, blocked by anti-C-terminal Osterix antibody, restored by peptide, room temp 20 min, gel at 4 C)"
GCTCGGGGGCGGGGTCTCAGGTTA (double strand) [Col2a1 (printed Co12a1)],binds,
CGTAGAGCCACACCCTGAAGG (double strand) [EKLF consensus oligo],binds,
ATTCGATCGGGGCGGGGCGAGC (double strand) [Sp1 consensus oligo],,binds
